Measurements reported in US20200253979A1, “THERAPEUTIC METHODS RELATING TO HSP90 INHIBITORS” (AI Therapeutics, Inc., priority 2017, published 2020).

How the values were obtained:
[1] = system: MOLM-13-R-PKC412 (midostaurin-resistant) cells; experiment: CellTiter-Glo cell viability; assay type: cell-based, human
Text: (§1) In the clinic, tyrosine kinase inhibitors that target FLT3 initially show positive responses, but patients inevitably relapse due to the development of drug-resistance through various mechanisms, as discussed above.

[2] = system: MOLM-13-LUC cells; experiment: CellTiter-Glo cell viability; assay type: cell-based; conditions: Homo sapiens, 72 hours
Text: as §1

For CO[C@@H]1[C@H](N(C)C(=O)c2ccccc2)C[C@H]2O[C@]1(C)n1c3ccccc3c3c4c(c5c6ccccc6n2c5c31)C(=O)NC4 [midostaurin], the EC50 ([1]; Homo sapiens, MOLM-13-R-PKC412, 72 hours) was 0.112 µM, the “fold difference in EC50, midostaurin-resistant vs control cells” value ([1]; MOLM-13-R-PKC412 vs MOLM-13-LUC) was about 2.5 fold and the EC50 [2] was 0.044 µM.
